Laboratory results reported in patent publication US10583197 (dated 2020).

Experiment: general procedure: solution-phase peptide synthesis; PyBOP/DIPEA; HOBt/pyridine/DIPEA; DEPC/triethylamine
Details: conjugation step

Substance	conjugation yield [%]
Acetylene Linker-Val-Cit-PABC-MMAE	70
Acetylene Linker-Val-Cit-PABC-MMAF-OMe	36
